PubChem BioAssay AID504808, Drosophila RNAi Screening Center – 2011
In all, the deposit lists about 21,000 reagents; this is a random part of those with a known target gene and a result. Over the whole deposit, 18 (0.084%) got an active call. 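Raw counts without plate normalisation, one of two replicates; the ratio scores behind the calls were not deposited.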 Not stated in the record: the amount of reagent, the time to read-out.

- Purpose: 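Genes whose loss lifts activity of an E2F-responsive reporter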 (primary screen)
- Cells: Drosophila S2 cells
- Reagents: long dsRNA against Drosophila genes
- Measurement: 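Firefly luciferase driven by E2F sites, normalised to Renilla luciferase on the same minimal promoter, measured by plate reader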
- Scale: E2F firefly: higher = more E2F reporter activity; Renilla normaliser: higher = more normaliser reporter signal
- Active means: 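Called active if the normalised E2F reporter went up by over 50%; the cutoff is arbitrary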

predicted target | amplicon | E2F firefly, rep 1 | Renilla normaliser, rep 1 | call
tweek | DRSC02433 | 1.06e5 | 4522 | inactive
tweek | DRSC02434 | 1.04e5 | 4520 | inactive
tweek | DRSC02785 | 80211 | 2836 | inactive
Acp63F (Accessory gland protein 63F) | DRSC08137 | 95617 | 4132 | inactive
CG17746 | DRSC08521 | 68677 | 3876 | inactive
cpa (capping protein alpha) | DRSC04080 | 80463 | 3413 | inactive
dikar | DRSC09699 | 73964 | 3433 | inactive
Cpr50Cb (Cuticular protein 50Cb) | DRSC06975 | 1.01e5 | 4255 | inactive
CG15765 | DRSC18071 | 6321 | 760 | inactive
CG31798 | DRSC01702 | 1.20e5 | 6065 | inactive
Wnt4 (Wnt oncogene analog 4) | DRSC00976 | 1.01e5 | 5432 | inactive
Wnt4 (Wnt oncogene analog 4) | DRSC03477 | 1.51e5 | 4841 | inactive
CtsL4 (Cathepsin L4) | DRSC02849 | 1.42e5 | 5428 | inactive
CG30020 | DRSC06252 | 44613 | 3001 | inactive
CG30020 | DRSC06730 | 1.25e5 | 4519 | inactive
Hsp26 (Heat shock protein 26) | DRSC11189 | 73644 | 3968 | inactive
Dok (Downstream of kinase) | DRSC18204 | 58067 | 4330 | inactive
ase (asense) | DRSC18739 | 55578 | 3696 | inactive
Taf7 (TBP-associated factor 7) | DRSC15445 | 96312 | 5398 | inactive
CG3483 | DRSC04371 | 75633 | 3354 | inactive
CG17272 | DRSC15211 | 1.21e5 | 7718 | inactive
mah (mahogany) | DRSC14645 | 1.05e5 | 6160 | inactive
nej (nejire) | DRSC18006 | 42387 | 3645 | inactive
nej (nejire) | DRSC18801 | 4762 | 672 | inactive
CG13160 | DRSC06284 | 1.01e5 | 4173 | inactive
Pcl (Polycomblike) | DRSC07503 | 62622 | 3189 | inactive
CG10104 | DRSC05964 | 1.10e5 | 4107 | inactive
CG14109 | DRSC10112 | 1.36e5 | 7073 | inactive
RhoGAP102A (Rho GTPase activating protein at 102A) | DRSC17110 | 84640 | 2904 | inactive
RhoGAP102A (Rho GTPase activating protein at 102A) | DRSC17145 | 1.32e5 | 5201 | inactive
CG18598 | DRSC15356 | 1.40e5 | 6946 | inactive
CG42326 | DRSC06483 | 1.37e5 | 5121 | inactive
CG42326 | DRSC06484 | 1.32e5 | 4645 | inactive
mthl4 (methuselah-like 4) | DRSC06998 | 1.54e5 | 5288 | inactive
CG12835 (retired record) | DRSC06181 | 1.65e5 | 5096 | inactive
Ude (Uracil-DNA degrading factor) | DRSC15324 | 72428 | 3058 | inactive
Ncc69 (sodium chloride cotransporter 69) | DRSC10412 | 72688 | 3357 | inactive
Ncc69 (sodium chloride cotransporter 69) | DRSC10413 | 87409 | 3486 | inactive
Obp57e (Odorant-binding protein 57e) | DRSC05891 | 1.84e5 | 5727 | inactive
Dhc1 (Dynein heavy chain 1) | DRSC16503 | 1.47e5 | 6547 | inactive
Sbf (SET domain binding factor) | DRSC16852 | 66502 | 3488 | inactive
CG31404 | DRSC15497 | 1.50e5 | 6927 | inactive
Fmo-1 (Flavin-containing monooxygenase 1) | DRSC04328 | 83108 | 3073 | inactive
TrpA1 (Transient receptor potential cation channel A1) | DRSC10544 | 1.00e5 | 4054 | inactive
hpo (hippo) | DRSC06065 | 70023 | 3442 | inactive
Tep1 (Thioester-containing protein 1) | DRSC03450 | 1.00e5 | 4811 | inactive
Trmt61 (tRNA methyltransferase 61) | DRSC14888 | 1.04e5 | 5399 | inactive
CG13531 | DRSC04173 | 90754 | 3875 | inactive
CG44422 | DRSC18885 | 82146 | 2145 | inactive
CG44422 | DRSC19380 | 37851 | 2972 | inactive
CG44422 | DRSC19480 | 86804 | 4337 | inactive
CG43317 | DRSC15000 | 1.14e5 | 6587 | inactive
Ocho | DRSC11239 | 1.70e5 | 7895 | inactive
CG8854 | DRSC07288 | 2743 | 214 | inactive
Atg16 (Autophagy-related 16) | DRSC15052 | 2107 | 832 | inactive
Atg16 (Autophagy-related 16) | DRSC15300 | 1.25e5 | 6538 | inactive
Atg16 (Autophagy-related 16) | DRSC15375 | 1.32e5 | 6840 | inactive
eIF3h (eukaryotic translation initiation factor 3 subunit h) | DRSC01995 | 1.07e5 | 4264 | inactive
CG10898 | DRSC14279 | 73919 | 3203 | inactive
Ced-12 | DRSC02840 | 1.15e5 | 4548 | inactive
Eig71Ec (Ecdysone-induced gene 71Ec) | DRSC11150 | 1.69e5 | 7956 | inactive
NO66 (Nucleolar protein 66) | DRSC18252 | 1862 | 932 | inactive
CG15403 | DRSC00417 | 1.42e5 | 4497 | inactive
Smurf (SMAD specific E3 ubiquitin protein ligase) | DRSC07641 | 1.26e5 | 4595 | inactive
GLS (Glutaminase) | DRSC07261 | 143 | 27 | inactive
AP-1-2beta (Adaptor Protein complex 1/2, beta subunit) | DRSC19336 | 1.28e5 | 7301 | inactive
CG10211 | DRSC02027 | 86180 | 3385 | inactive
dpr6 (defective proboscis extension response 6) | DRSC09005 | 79120 | 4422 | inactive
dpr6 (defective proboscis extension response 6) | DRSC10162 | 1.22e5 | 6795 | inactive
dpr6 (defective proboscis extension response 6) | DRSC10163 | 51555 | 3176 | inactive
CG3823 | DRSC18325 | 58318 | 3966 | inactive
bnb (bangles and beads) | DRSC20314 | 1.51e5 | 4842 | inactive
CG9674 | DRSC11088 | 70054 | 3519 | inactive
CG9674 | DRSC11089 | 1.42e5 | 6737 | inactive
Cyp309a1 (Cytochrome P450 309a1) | DRSC00747 | 1.67e5 | 5544 | inactive
Rcc1 (Regulator of chromosome condensation 1) | DRSC09684 | 73475 | 3452 | inactive
Ekar (Eye-enriched kainate receptor) | DRSC17161 | 46044 | 3710 | inactive
Idgf3 (Imaginal disc growth factor 3) | DRSC03351 | 82020 | 3765 | inactive
Gprk1 (G protein-coupled receptor kinase 1) | DRSC20732 | 77919 | 2420 | inactive
Gprk1 (G protein-coupled receptor kinase 1) | DRSC20916 | 87289 | 2910 | inactive
Uxt (Uxt prefoldin-like subunit) | DRSC01962 | 1.03e5 | 4246 | inactive
Rtnl2 | DRSC12609 | 1.41e5 | 6390 | inactive
Eig71Ed (Ecdysone-induced gene 71Ed) | DRSC11151 | 1.76e5 | 8154 | inactive
slx1 (nuclease slx1) | DRSC12290 | 1.52e5 | 6821 | inactive
Ugalt (UDP-galactose transporter) | DRSC18467 | 1.09e5 | 4945 | inactive
CG14142 | DRSC10145 | 1.14e5 | 6534 | inactive
Krn (Keren) | DRSC11202 | 1.65e5 | 8033 | inactive
Asph (Aspartyl beta-hydroxylase) | DRSC06783 | 1.26e5 | 4365 | inactive
Asph (Aspartyl beta-hydroxylase) | DRSC07171 | 75158 | 3627 | inactive
Eb1 | DRSC05016 | 93691 | 4006 | inactive
Ythdf (YTH N6-methyladenosine RNA binding protein) | DRSC16036 | 1.17e5 | 5663 | inactive
Ythdf (YTH N6-methyladenosine RNA binding protein) | DRSC16037 | 1.25e5 | 6283 | inactive
CG15535 | DRSC15071 | 1.28e5 | 6221 | inactive
Tsp42Eg (Tetraspanin 42Eg) | DRSC06112 | 90917 | 4133 | inactive
CG33109 | DRSC16533 | 1.11e5 | 5867 | inactive
Cpr49Ae (Cuticular protein 49Ae) | DRSC07201 | 2588 | 217 | inactive
CG34165 | DRSC01970 | 94582 | 4044 | inactive
spidey | DRSC17932 | 1.01e5 | 5676 | inactive
CG13989 | DRSC02321 | 1.48e5 | 4915 | inactive
Obp8a (Odorant-binding protein 8a) | DRSC17868 | 1.34e5 | 5797 | inactive
Cpr49Ah (Cuticular protein 49Ah) | DRSC07204 | 1.13e5 | 5054 | inactive
Oscillin | DRSC03001 | 87501 | 3738 | inactive
CG7840 | DRSC03075 | 96371 | 4058 | inactive
spg (sponge) | DRSC14373 | 1.07e5 | 6428 | inactive
spg (sponge) | DRSC14881 | 1.07e5 | 5799 | inactive
Slh (SLY-1 homologous) | DRSC00789 | 1.50e5 | 6229 | inactive
step (steppke) | DRSC03694 | 1.08e5 | 4922 | inactive
step (steppke) | DRSC03699 | 1.06e5 | 3727 | inactive
